Whole data set: some 33,000 sequences, median “E-score (-0.5 to 0.5)” near -0.0014, cut for the highest 2% near 0.25. Some of the results follow.
What follows are sequences tested against T1, Cad1 (UniProt P24813) (assay: PBM E-score (8-mer binding enrichment) (E-score (-0.5 to 0.5)); higher = stronger / more preferred TF binding). Details: protein concentration: 100 nM; construct: GST-full length.
T1 sequence: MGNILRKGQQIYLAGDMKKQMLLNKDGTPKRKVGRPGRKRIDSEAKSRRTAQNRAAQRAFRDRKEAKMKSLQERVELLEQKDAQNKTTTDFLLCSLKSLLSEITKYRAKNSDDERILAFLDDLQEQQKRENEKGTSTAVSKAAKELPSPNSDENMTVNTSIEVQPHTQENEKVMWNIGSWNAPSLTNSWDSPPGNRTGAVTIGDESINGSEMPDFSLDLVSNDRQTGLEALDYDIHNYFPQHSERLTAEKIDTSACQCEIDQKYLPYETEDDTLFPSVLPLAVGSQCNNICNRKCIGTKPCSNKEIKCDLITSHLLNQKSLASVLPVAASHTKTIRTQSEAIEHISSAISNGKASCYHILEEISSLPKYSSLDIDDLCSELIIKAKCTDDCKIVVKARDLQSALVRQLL
In short: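 PURExpress in vitro transcription/translation supplied GST-tagged yeast transcription factors, either full-length or DNA-binding domain. Applied at about 100-200 nM to universal all-10-mer Agilent arrays double-stranded by primer extension, the bound protein was detected with fluorescent anti-GST. E-scores, modified Wilcoxon-Mann-Whitney statistics, were given by the Universal PBM Analysis Suite to ungapped eight-base words pooled with their reverse complements after masliner normalisation.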

Sequence	PBM E-score
GTCGCCCA	-0.0788
CACACTGA	-0.00238
AAAGGATA	0.149
AGCGGTAC	0.0993
ATTGAGAG	0.15
ACTGGTCA	-0.0283
GATTATAA	0.29
AGTCCGAT	0.05
AATCACAA	0.0852
GTCTCAAC	-0.072
AAGGGCAT	-0.205
CCGGGGAA	-0.143
CGCGAGCC	0.072
AATGGAAA	-0.01
CGGCTCAC	-0.0062
GCCGGTCC	-0.178
GCAGAGAA	0.0302
ACAGTAGA	-0.0159
ATCCTAGA	-0.0558
AGGGTACG	-0.175
GGCGCGGA	0.0474
ATAGTCGG	-0.048
ACGTCCCC	-0.288
AGTGTGAC	-0.0643
CAGTAGGG	-0.192

Sequence	PBM E-score
CCGGACTC	0.281
AGCTGATG	0.092
CCGAAGCC	-0.147
CAGTGCGA	-0.0311
CAGGCTTC	0.0239
CAGTACAG	0.00174
AATCCCCT	-0.391
AATTAGTC	0.346
GCCCAACA	-0.145
CAATACGG	0.033
CCGTCGCA	-0.00099
ACTAGCTC	-0.0688
GCGCGTCA	0.0818
CCGTCTCA	-0.0131
AATTTATA	0.241
CATGAAGG	0.0961
ATTGGAGG	-0.0512
CATTCGGG	0.051
AGCAAGTG	-0.0785
CTTGTTAC	-0.0787
ATGGTTAA	0.133
ATGCGACC	0.0488
CGACTACC	-0.128
GCATCCAA	-0.167
AAGGCCTT	-0.101

Sequence	PBM E-score
ATCTCGGG	0.156
GCAGACCA	-0.0168
ACGCGACA	0.145
GCACTTTA	0.0791
ACTCCTGC	-0.0123
AAGCAGAG	-0.111
ATCGATAG	0.0764
GTTTACCA	0.0706
CATCTTAG	0.0167
GTAGGGGA	-0.232
ATCACCTC	0.0366
AGCGTCCC	0.00123
ATGCCAAT	-0.0122
GAATAAAC	0.0531
GCGTGGTA	-0.0441
ACGAGGAA	0.0132
ACGCGACT	-0.154
AGCGCTGC	0.0821
CAACACAA	0.11
ATAACATG	0.146
ACCCAATA	0.0319
CCGACGCA	-0.0934
AACCGGAA	0.162
GCGCGGCC	0.17
CATGCGCA	0.116

Sequence	PBM E-score
ACGCCCTG	-0.0391
TGGGGTAA	0.134
AATGGGCT	-0.219
GCTTTAAA	-0.129
AAGAGGGG	-0.239
CCGCGTCG	0.146
ATACATAT	0.286
AATGTAAG	0.264
ACGCAGGA	-0.0891
GATAATAC	0.182
CCCTCACC	-0.248
CGCAAATA	0.23
GCCGCCAA	-0.0208
GGGCGTCA	-0.0197
GATTTCAC	0.221
ACGAAATC	0.214
AGTCGAAC	0.105
GAACATGC	-0.0214
AGCGATCG	0.216
CAATCGCC	-0.00155
ATCAGCAC	0.0147
AATTCAAT	0.162
CTACCCTA	-0.129
CCAGACAA	0.0234
TACTACGA	0.116

Sequence	PBM E-score
TAACCCGA	-0.00699
TCCTCTAA	-0.139
TAGGGTGA	-0.00775
GGTCACAC	-0.212
ACGACTTA	-0.0249
GACTGCAC	-0.0126
CTGAAGAC	-0.0558
CCGAGTAA	-0.00219
CAGCACCG	-0.138
AAGGGATC	-0.236
CGGAGATA	0.0493
AGTCCAGA	0.00188
AGGAGCTA	-0.255
ATCCCGTA	0.116
ATCGGGAC	-0.12
CGTCTCCA	0.00987
ACAAATAC	0.271
ACATCTTG	-0.172
AATAAACG	0.177
AGATATTC	0.0892
CAGAGTGC	-0.0155
AGCCTCTA	-0.288
CCCACCCC	0.0432
AACAGGGA	0.0284
CGAATGCA	0.101

Sequence	PBM E-score
CATGTGTA	0.0667
AGGCCAAG	-0.197
AGGAGCAC	-0.0512
AACCCTAC	-0.291
ATTATACG	0.237
ATGGACCC	-0.0809
GTTTACAA	0.138
TCCGCCAA	-0.096
CTCATTAC	0.204
GGCATGCA	0.183
ACTTGCTG	-0.0943
ACGGCCTC	0.0237
GGCTCGTA	0.0824
CCTTGGCG	-0.288
CGAATAGA	0.0513
ACTTATTA	0.192
ACCAGTTC	-0.0878
CATAAGCG	0.0735
GCACTCGA	0.0531
CTTCCACC	-0.254
CCGGTACG	-0.169
AGGAGTAA	0.027
GAGCTTAA	-0.051
ATGCTATG	0.125
GCTGTTCC	-0.0944

Sequence	PBM E-score
ATCAGGGA	-0.119
AAGTTGGC	-0.125
CGTGTGAC	0.0826
GCCATCCA	-0.131
ATCTAGTA	0.193
GTCCGTAA	0.098
CCGGAGAA	-0.0877
AATTCTGG	0.0109
CATCGAAG	0.0775
ATTCGTGC	0.0484
AACAACCC	-0.0929
CTGTCCTA	-0.179
GATTCGTA	0.134
ACTAGTCG	-0.0636
CCCCTTAG	-0.213
ACTCTAAG	-0.094
CGATTGCA	0.134
AAGTGCTG	0.0929
AAAGGCTT	-0.0338
TGATAGAA	0.0818
AATGTTGA	-0.0828
GATTCTTA	0.186

Copied from the list:
Entry of AAAGGCTT under PBM E-score: -0.0338
Entry of ATTCGTGC under PBM E-score: 0.0484
Entry of AAGTGCTG under PBM E-score: 0.0929
Entry of ACTCTAAG under PBM E-score: -0.094
Entry of GTCCGTAA under PBM E-score: 0.098
Entry of AAGTTGGC under PBM E-score: -0.125

From the supplement of paper PMC3334620
